Laboratory results reported in PubChem BioAssay AID1347075 (National Center for Advancing Translational Sciences (NCATS), 2019).
Where “and” joins values, the source holds several entries; their conditions need not be identical. Equal values may be shown once. Out of some 400,000 compounds screened, about 5,500 (1.4%) were called active. Inconclusive results, whose numbers are uncertain, are shown with a selection of clear calls. Calls come from the whole dose curve; as a rule, active = well fitted cell-killing curve with a large enough effect; inconclusive = small, poorly fitted or top-dose-only effect, or effect the other way; inactive = flat fitted curve, though single readings scatter. Where the call is inconclusive, the potency comes from a doubtful curve fit.

Assay: qHTS assay for MDR1-selective chemotherapeutics: Primary screen using the parental adenocarcinoma cell KB-3-1; note: nearly all actives have a fitted effect of over 60% in size
Settings: KB-3-1 viability, CellTiter-Glo ATP luminescence, 72 h; activity change, negative = cytotoxic: at 46.1 µM (top of the series)
In short: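 Cells are dispensed, compounds pinned in, plates held at 37 °C for 72 h, then CellTiter-Glo is added and luminescence read after 10 minutes. Cell line: parental KB-3-1 in phenol-red-free DMEM, 10% FBS.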
% is set by controls: 0 for no effect and ±100 for the full control effect; potency is the fitted concentration of half-maximal effect.

| Structure (SMILES) | activity change, negative = cytotoxic | Potency |
| --- | --- | --- |
| CCCCN1C=C(C(=O)OC)C(c2ccccc2C(F)(F)F)C(C(=O)OC)=C1 | inactive: 1.55% |  |
| Cc1cc(C(=O)Nc2cccc(F)c2)c2c(C)nn(-c3cccc(Cl)c3C)c2n1 |  | inconclusive: 23.1 µM [cytotoxic, partial curve, poor fit] |
| Cc1cc(C(=O)COC(=O)C2CCN(C(=O)c3ccc(Cl)cc3)CC2)c(C)n1CC1CCCO1 (stereo not given) | inactive: -0.808% |  |
| C=CCN=c1scc(-c2ccccc2)n1/N=C/c1ccccn1 |  | inconclusive: 20.6 µM [cytotoxic, partial curve, poor fit] and active: 1.46 µM |
| Cn1c(-[n+]2c(-c3ccccc3)cc(-c3ccccc3)cc2-c2ccccc2)nc2c([N+](=O)[O-])cccc21 |  | inconclusive: 23.1 µM [cytotoxic, single point] |
| COc1cc(C(=S)N2CCN(c3cccc(Cl)c3)CC2)ccc1O |  | active: 8.2 µM |
| O[C@@H]1COC(Nc2ccc(N=Nc3ccccc3)cc2)C[C@@H]1O (stereo not given in full) | inactive: -0.063% |  |
| O=C(NCCc1ccc(F)cc1)c1coc(=O)c(Br)c1 |  | inconclusive: 29.1 µM [cytotoxic, single point] |
| CC(C)Cn1c(=O)c(C(=O)NCc2ccc3c(c2)OCO3)c(O)c2ccccc21 |  | inconclusive: 29.1 µM [cytotoxic, single point] |
| NC(=O)CSc1nc2scc(-c3ccc(Cl)cc3)c2c(=O)n1Cc1ccccc1 | inactive: -22.6% |  |
| CCn1c(CCNC(=O)c2ccc(Cl)c(Cl)c2)nnc1SCCOc1ccc(OC)cc1 |  | active: 20.6 µM |
| Cc1cc(O)c(-c2cc(C(=O)Nc3ccc(S(=O)(=O)N4CCOCC4)cc3)[nH]n2)cc1C |  | inconclusive: 29.1 µM [cytotoxic, single point] |
| CCn1c(=NC(=O)CS(=O)(=O)c2ccccc2)sc2cccc(OC)c21 |  | inconclusive: 20.6 µM [cytotoxic, partial curve, poor fit] |
| CCCCC(O)(CCCC)C(=O)NN(C(=O)CCl)c1ccccc1 |  | inconclusive: 18.4 µM [cytotoxic, single point] |
| O=C(Cc1cn2ccsc2n1)Nc1nc2c(s1)CCCC2 |  | inconclusive: 16.4 µM [cytotoxic, partial curve, poor fit] |
| S=c1[nH]nc(C2CC2)n1Cc1ccccc1 | inactive: 0.941% |  |
| COC(=O)[C@@]1(Cc2ccc(F)cc2)[C@H]2c3cc(C(=O)N(C)C)n(Cc4ccc(Cl)c(C(F)(F)F)c4)c3C[C@H]2CN1C(=O)c1ccccc1 |  | inconclusive: 29.1 µM [cytotoxic, single point] |
| CCc1ccc(OC)c(S(=O)(=O)Nc2ccc(Cc3ccncc3)cc2)c1 |  | inconclusive: 9.2 µM [cytotoxic, partial curve] |
| Cc1cc(OC(C)C)nc(NCc2ccccc2)n1 |  | active: 11.6 µM |
| CCCC/C(C)=N/NC(=O)c1cn(-c2ccccc2)nc1-c1ccccc1 |  | inconclusive: 29.1 µM [cytotoxic, single point] |
| COc1cccc2cc(-c3csc(-c4ccc(Cl)cc4)n3)c(=O)oc12 | inactive: -4.12% |  |
| COc1ccc(-c2csc(Nc3ccc(C)cn3)n2)cc1OC |  | inconclusive: 29.1 µM [cytotoxic, single point] |
| Cc1ccc(N/C(N)=N/c2nc(C)cc(N3CCCCC3)n2)c(C)c1 |  | active: 16.4 µM |
| COc1cccc(Cn2c(SCC(=O)N(C)c3ccccc3)nc3ccccc32)c1 | inactive: 4.97% |  |

| Structure (SMILES) | activity change, negative = cytotoxic | Potency |
| --- | --- | --- |
| Nc1c(S(=O)(=O)c2ccccc2)c2nc3ccccc3nc2n1CCN1CCOCC1 | inactive: -0.375% |  |
| Cc1ccc(-c2nc(CS(=O)(=O)CC(=O)NCc3ccc(Cl)cc3)c(C)o2)cc1 |  | inconclusive: 32.6 µM [rising, partial curve, poor fit] |
| O=C(C1=C[C@@H](c2ccc(Br)cc2)C[C@@H](OCCCCO)O1)N1CCN(Cc2ccc3c(c2)OCO3)CC1 |  | inconclusive: 18.4 µM [cytotoxic, single point] |
| Cc1cccc(-n2c(Cc3ccccc3)nnc2SCc2ccc([N+](=O)[O-])cc2)c1 |  | inconclusive: 29.1 µM [cytotoxic, single point] |
| Cc1ccccc1CNC(=O)c1ccc(CSc2nc3cccnc3n2Cc2ccccc2)cc1 |  | inconclusive: 18.4 µM [cytotoxic, partial curve] |
| OC(CN1CCCCCC1)CN(c1ccccc1)c1ccccc1 (stereo not given) |  | inconclusive: 18.4 µM [cytotoxic, single point] |
| CC(NC(=O)CCc1ccccc1)c1cc2c(cc1Cl)OCCO2 (stereo not given) |  | inconclusive: 29.1 µM [cytotoxic, single point] |
| CCCN(C(=O)COc1cc(=O)n(CC)c2ccccc12)c1ccc(C(C)C)cc1 |  | inconclusive: 32.6 µM [cytotoxic, single point] |
| COc1cc(NC(=O)c2cc([N+](=O)[O-])ccc2NC(=O)CNCc2ccccn2)cc(OC)c1 |  | inconclusive: 14.6 µM [rising, partial curve, poor fit] |
| COc1ccc2[nH]c(C)c(CCNC(=S)Nc3ccccc3C)c2c1 | inactive: -13.2% |  |
| Cc1cc(C(=O)NCCN2CCN(c3cccc(Cl)c3)CC2)n(-c2ccccc2)n1 |  | active: 14.6 µM |
| Cc1occc1-c1nnc(SCC(=O)Nc2ccc(F)cc2)n1Cc1ccccc1 |  | inconclusive: 16.4 µM [cytotoxic, single point] |
| O=C(CSc1nc2ccccc2n1CCc1ccccc1)c1ccc(O)c(O)c1 |  | inconclusive: 4.11 µM [rising, full curve] |
| CCOc1cccc(/C=N/NC(=S)NCCN2CCOCC2)c1O |  | inconclusive: 29.1 µM [cytotoxic, single point] |
| CC1=CC(C)(C)N2C(=O)C3(C(C#N)=C(N)Oc4cc(C)oc(=O)c43)c3cc(C)cc1c32 (stereo not given) |  | inconclusive: 35.5 µM [cytotoxic, single point] |
| COC(=O)c1ccc(C)c(NS(=O)(=O)c2ccc3c(c2)OCCO3)c1 |  | active: 2.31 µM |
| O=C(O)CSCC(=O)Nc1ccc(Cl)cc1C(F)(F)F | inactive: 5.97% |  |
| Brc1ccccc1-c1nnc2sc(-c3ccc4c(c3)OCCO4)nn12 | inactive: -26.1% |  |
| Cc1ccc(C)c(N2CCN(C(=O)CC3Sc4ccccc4NC3=O)CC2)c1 (stereo not given) |  | inconclusive: 29.1 µM [cytotoxic, single point] |
| O=C(COC(=O)c1ccc2ncsc2c1)Nc1ccccc1Br | inactive: 4.02% |  |
| COc1ccc(NC(=O)c2c(NCc3cccs3)sc3c2CCCC3)cc1 |  | inconclusive: 18.4 µM [cytotoxic, single point] |
| CC(=O)Nc1ccc(S(=O)(=O)Nc2cccc(-c3csc(C)n3)c2)cc1 | inactive: -28.8% |  |
| O=C(CN1C(=O)CCC1=O)NCC12CC3CC(CC(C3)C1)C2 | inactive: 0% |  |
| CC(C)c1ccc(NC(=O)Nc2csc3c2CCCC3)cc1 |  | inconclusive: 25.9 µM [cytotoxic, partial curve, poor fit] |

Ordered by molecular weight (smallest number first): part of the list above

| Structure (SMILES) | activity change, negative = cytotoxic | Potency |
| --- | --- | --- |
| O=C(CN1C(=O)CCC1=O)NCC12CC3CC(CC(C3)C1)C2 | inactive: 0% |  |
| CC(C)c1ccc(NC(=O)Nc2csc3c2CCCC3)cc1 |  | inconclusive: 25.9 µM [cytotoxic, partial curve, poor fit] |
| O=C(O)CSCC(=O)Nc1ccc(Cl)cc1C(F)(F)F | inactive: 5.97% |  |
| CC(NC(=O)CCc1ccccc1)c1cc2c(cc1Cl)OCCO2 (stereo not given) |  | inconclusive: 29.1 µM [cytotoxic, single point] |
| CCOc1cccc(/C=N/NC(=S)NCCN2CCOCC2)c1O |  | inconclusive: 29.1 µM [cytotoxic, single point] |
| COC(=O)c1ccc(C)c(NS(=O)(=O)c2ccc3c(c2)OCCO3)c1 |  | active: 2.31 µM |
| CC(=O)Nc1ccc(S(=O)(=O)Nc2cccc(-c3csc(C)n3)c2)cc1 | inactive: -28.8% |  |
| O=C(COC(=O)c1ccc2ncsc2c1)Nc1ccccc1Br | inactive: 4.02% |  |
| Cc1ccc(C)c(N2CCN(C(=O)CC3Sc4ccccc4NC3=O)CC2)c1 (stereo not given) |  | inconclusive: 29.1 µM [cytotoxic, single point] |
| COc1ccc(NC(=O)c2c(NCc3cccs3)sc3c2CCCC3)cc1 |  | inconclusive: 18.4 µM [cytotoxic, single point] |
| Brc1ccccc1-c1nnc2sc(-c3ccc4c(c3)OCCO4)nn12 | inactive: -26.1% |  |
| Cc1cccc(-n2c(Cc3ccccc3)nnc2SCc2ccc([N+](=O)[O-])cc2)c1 |  | inconclusive: 29.1 µM [cytotoxic, single point] |
| Cc1occc1-c1nnc(SCC(=O)Nc2ccc(F)cc2)n1Cc1ccccc1 |  | inconclusive: 16.4 µM [cytotoxic, single point] |
| Cc1cc(C(=O)NCCN2CCN(c3cccc(Cl)c3)CC2)n(-c2ccccc2)n1 |  | active: 14.6 µM |
| Cc1ccc(-c2nc(CS(=O)(=O)CC(=O)NCc3ccc(Cl)cc3)c(C)o2)cc1 |  | inconclusive: 32.6 µM [rising, partial curve, poor fit] |
| Nc1c(S(=O)(=O)c2ccccc2)c2nc3ccccc3nc2n1CCN1CCOCC1 | inactive: -0.375% |  |
| COc1cc(NC(=O)c2cc([N+](=O)[O-])ccc2NC(=O)CNCc2ccccn2)cc(OC)c1 |  | inconclusive: 14.6 µM [rising, partial curve, poor fit] |
| Cc1ccccc1CNC(=O)c1ccc(CSc2nc3cccnc3n2Cc2ccccc2)cc1 |  | inconclusive: 18.4 µM [cytotoxic, partial curve] |

Continued.

| Structure (SMILES) | activity change, negative = cytotoxic | Potency |
| --- | --- | --- |
| CN(C)c1cccc(C(=O)Nc2nc3ccccc3[nH]2)c1 |  | inconclusive: 7.31 µM [cytotoxic, partial curve, poor fit] |
| CCCn1nc([N+](=O)[O-])c(C(C#N)c2nc3ccccc3s2)c(Cl)c1=O (stereo not given) |  | inconclusive: 29.1 µM [cytotoxic, single point] |
| O=C(Cn1c2ccc(F)cc2c2nc3n(c(=O)c21)CCS3)NC1CCCC1 |  | inconclusive: 25.9 µM [rising, single point] |
| CCN1C(=O)CC(C(=O)Nc2ccc(F)cc2)SC1=Nc1cccc(OC)c1 (stereo not given) |  | inconclusive: 18.4 µM [cytotoxic, single point] |
| CCOc1ccc(C(=O)CC(C(=O)O)N2CCCCC2)cc1 (stereo not given) |  | inconclusive: 20.6 µM [cytotoxic, single point] |
| Cc1cc(-c2ccc(C(C)C)c(S(=O)(=O)N3CCC(C)CC3)c2)on1 |  | active: 20.6 µM |
| CCOC(=O)n1c(=O)n(Cc2ccc(OC)cc2)c2ccccc21 |  | active: 16.4 µM |
| Cc1cc(=O)n2c(sc3ccccc32)c1C#N | inactive: -5.82% |  |
| O=C(CCCN1C(=O)/C(=C\c2ccccc2)SC1=S)Nc1ccc(O)cc1 |  | inconclusive: 29.1 µM [cytotoxic, single point] |
| O=C(CN1CCN(S(=O)(=O)c2ccccc2)CC1)Nc1ccccc1C(=O)c1ccccc1 |  | inconclusive: 29.1 µM [cytotoxic, single point] |
| O=[N+]([O-])c1cccc(NC2=NCCC2)c1 |  | active: 13 µM |
| O=C1CSC(=S)N1/N=C/c1c(F)cccc1F | inactive: 0% |  |
| CC(C)[C@H](NC(=O)[C@@H]1CSC2c3ccccc3C(=O)N21)C(=O)NC1CCCCC1 (stereo not given in full) | inactive: 4.29% |  |
| COc1cccc(CN2CC(C(=O)NCCn3ccc(C)n3)CCC2=O)c1 (stereo not given) |  | inconclusive: 18.4 µM [rising, partial curve, poor fit] |
| Cc1cc(C)nc(SCC(=O)Nc2ccnc3ccccc23)n1 |  | active: 3.66 µM |
| CCOC(=O)N1CCN(c2c(NCc3ccc(F)cc3)c(=O)c2=O)CC1 |  | active: 5.17 µM |
| O=C(Nc1ccc(Cl)c(S(=O)(=O)N2CCOCC2)c1)c1ccc(Cl)nc1 |  | inconclusive: 23.1 µM [cytotoxic, single point] |
| Cc1ccc(OCCn2c(-c3ccc(Br)cc3)nc3ccccc3c2=O)cc1C | inactive: 9.81% |  |
| CN(C)CCOc1ccc2c(c1)C(=O)C(=Cc1ncc([N+](=O)[O-])n1C)C2 |  | inconclusive: 2.91 µM [cytotoxic, full curve, poor fit] |
| O=C1/C(=C/c2ccc([N+](=O)[O-])cc2)Oc2cc(O)ccc21 | inactive: -8.51% |  |
| CC(C)C(=O)Nc1ccc(O)c(-c2csc(N)n2)c1 |  | inconclusive: 25.9 µM [rising, partial curve, poor fit] |
| COc1ccccc1-c1nnc(NC(=O)C(C)SC2=NCCS2)s1 (stereo not given) |  | inconclusive: 29.1 µM [cytotoxic, single point] |
